Article PMC5029927

Target: T1, nYFP-SconB (Aspergillus fumigatus) (UniProt B0XTS1)
T1 sequence: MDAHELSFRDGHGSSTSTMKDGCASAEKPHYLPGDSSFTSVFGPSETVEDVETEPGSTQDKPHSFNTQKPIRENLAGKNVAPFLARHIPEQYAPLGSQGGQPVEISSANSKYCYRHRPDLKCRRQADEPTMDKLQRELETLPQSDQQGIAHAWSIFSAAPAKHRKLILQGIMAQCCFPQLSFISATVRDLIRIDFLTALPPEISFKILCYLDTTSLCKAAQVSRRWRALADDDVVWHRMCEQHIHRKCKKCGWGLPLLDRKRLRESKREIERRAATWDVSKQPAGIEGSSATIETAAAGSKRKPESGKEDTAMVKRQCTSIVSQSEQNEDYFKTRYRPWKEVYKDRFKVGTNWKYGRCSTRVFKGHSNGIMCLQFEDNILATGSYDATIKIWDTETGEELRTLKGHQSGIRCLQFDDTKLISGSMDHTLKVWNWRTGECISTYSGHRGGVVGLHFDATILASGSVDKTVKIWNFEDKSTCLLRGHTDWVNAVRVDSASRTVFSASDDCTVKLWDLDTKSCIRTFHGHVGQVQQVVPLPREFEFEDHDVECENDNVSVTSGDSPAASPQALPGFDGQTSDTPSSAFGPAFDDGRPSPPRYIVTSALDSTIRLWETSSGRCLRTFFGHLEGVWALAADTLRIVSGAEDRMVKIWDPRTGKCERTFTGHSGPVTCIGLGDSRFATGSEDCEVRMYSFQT
Assay: split reporter; BiFC with split YFP fusions in hyphae of A. fumigatus (pyrG1 strain Af293.1), without H2O2 (non-stress conditions)

binding: binds
Substance: cYFP-SkpA (Aspergillus fumigatus)

No constants are given. Whether binding was seen depends on the method and setting. In cells and extracts the contact can be indirect. Binding can be weak; no strength is given. Sequences can lack the tags named with a protein.
